Assay results taken from PMC5996148.
The list shows a part of the results. For some assays here: Construct or isoform of the protein are uncertain.

Chains of the proteins cited; added tags and fusions are not shown. Lines headed by an entry give the natural chain unless they say otherwise; changes in a name come on top.
UniProt Q96AZ6: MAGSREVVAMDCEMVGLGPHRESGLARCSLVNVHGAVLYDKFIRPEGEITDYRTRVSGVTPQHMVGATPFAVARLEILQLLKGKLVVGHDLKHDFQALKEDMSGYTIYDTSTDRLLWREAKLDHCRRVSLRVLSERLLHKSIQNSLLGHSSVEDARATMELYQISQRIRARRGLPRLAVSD

Assays:
Experiment in all cases: protein microarray (ProtoArray v5.0), streptavidin-Alexa Fluor 647
Settings in all cases: 3'-biotin; 20 mM Tris (pH 7.5), 5 mM MgCl2, 100 mM KCl, 0.1% Tween-20, A/T-rich and random oligonucleotide blockers; temperature not stated; high values mean tight binding
[1] = system: IL2 (human)
[2] = system: IL22 (human)
[3] = system: IL27 (human)
[4] = system: IL32 (human)
[5] = system: IL5 (human)
[6] = system: IL7 (human)
[7] = system: IL8RA (human)
[8] = system: ILVBL (human)
[9] = system: IMPDH1 (human)
[10] = system: INDO (human)
[11] = system: ING3 (human)
[12] = system: INTS4 (human)
[13] = system: INVS (human)
[14] = biological target: T1, IPPK (UniProt Q9H8X2)
T1 sequence: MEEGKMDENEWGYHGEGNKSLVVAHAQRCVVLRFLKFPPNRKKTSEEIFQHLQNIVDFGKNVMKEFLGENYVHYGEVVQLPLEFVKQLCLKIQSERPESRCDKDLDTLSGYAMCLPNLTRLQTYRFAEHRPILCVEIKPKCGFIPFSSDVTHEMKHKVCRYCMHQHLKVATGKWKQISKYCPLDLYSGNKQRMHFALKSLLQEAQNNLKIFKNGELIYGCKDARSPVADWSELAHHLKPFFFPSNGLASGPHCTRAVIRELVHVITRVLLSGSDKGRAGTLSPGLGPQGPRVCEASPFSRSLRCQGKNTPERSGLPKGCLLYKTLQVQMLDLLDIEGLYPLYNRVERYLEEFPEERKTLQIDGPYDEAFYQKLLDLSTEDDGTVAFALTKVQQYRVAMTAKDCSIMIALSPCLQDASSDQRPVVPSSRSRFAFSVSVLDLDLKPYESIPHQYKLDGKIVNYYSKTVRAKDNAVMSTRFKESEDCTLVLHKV

[15] = system: IRAK3 (human)
[16] = system: IRF5 (human)
[17] = system: IRF6 (human)
[18] = biological target: ISG20 (UniProt Q96AZ6)
[19] = system: ITGB1BP3 (human)
[20] = biological target: ITM2B (UniProt Q9Y287)

“GGTGACAGGGGTATGGGGAGGGG [G4-2 biotinylated (Ct1)]” gave a binding signal [1] of -0.364 z-score, a binding signal [2] of -0.382 z-score and a binding signal [3] of -0.374 z-score. It also gave a binding signal [4] of -0.373 z-score, a binding signal [5] of -0.394 z-score and a binding signal [6] of -0.393 z-score. It also gave a binding signal [7] of -0.368 z-score, a binding signal [8] of -0.377 z-score and a binding signal [9] of -0.376 z-score. For the same sequence, the binding signal [10] was -0.393 z-score, the binding signal [11] was -0.392 z-score and the binding signal [12] was -0.378 z-score. For the same sequence, the binding signal [13] was -0.388 z-score, the binding signal [14] was 3.63 z-score and the binding signal [15] was -0.382 z-score. It also gave a binding signal [16] of -0.371 z-score, a binding signal [17] of -0.394 z-score and a binding signal [18] of 3.99 z-score. For the same sequence, the binding signal [19] was -0.398 z-score and the binding signal [20] was -0.373 z-score.
